Measurements from “University of Dundee, Small-Polar-MMV Screening Library” (2021), ChEMBL document CHEMBL3988442.

Chains of the proteins cited; added tags and fusions are not shown. Residues count along the entry.
UniProt P9WFT3, whole entry: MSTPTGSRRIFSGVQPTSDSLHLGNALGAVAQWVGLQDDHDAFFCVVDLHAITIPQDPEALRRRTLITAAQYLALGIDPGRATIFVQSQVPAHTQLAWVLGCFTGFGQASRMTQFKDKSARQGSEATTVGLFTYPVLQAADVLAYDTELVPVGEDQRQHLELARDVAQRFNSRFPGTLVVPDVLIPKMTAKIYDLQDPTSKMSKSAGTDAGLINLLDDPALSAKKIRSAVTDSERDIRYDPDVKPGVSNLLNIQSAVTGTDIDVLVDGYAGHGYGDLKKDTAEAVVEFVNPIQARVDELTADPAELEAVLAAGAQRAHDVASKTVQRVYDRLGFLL
UniProt Q4DA54, 1-478: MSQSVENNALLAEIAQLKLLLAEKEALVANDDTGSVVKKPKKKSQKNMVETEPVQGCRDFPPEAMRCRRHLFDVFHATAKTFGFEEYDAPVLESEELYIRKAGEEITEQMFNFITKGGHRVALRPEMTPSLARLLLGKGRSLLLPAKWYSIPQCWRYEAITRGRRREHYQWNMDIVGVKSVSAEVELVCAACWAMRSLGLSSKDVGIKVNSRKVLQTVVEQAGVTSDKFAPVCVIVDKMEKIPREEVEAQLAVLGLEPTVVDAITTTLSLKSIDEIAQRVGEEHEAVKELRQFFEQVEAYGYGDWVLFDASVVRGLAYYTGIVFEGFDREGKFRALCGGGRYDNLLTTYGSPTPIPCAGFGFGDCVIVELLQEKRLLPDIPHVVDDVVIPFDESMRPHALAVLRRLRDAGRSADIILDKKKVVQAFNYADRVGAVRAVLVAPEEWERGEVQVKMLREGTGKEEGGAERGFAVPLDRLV
UniProt Q8IDJ8, 1-583: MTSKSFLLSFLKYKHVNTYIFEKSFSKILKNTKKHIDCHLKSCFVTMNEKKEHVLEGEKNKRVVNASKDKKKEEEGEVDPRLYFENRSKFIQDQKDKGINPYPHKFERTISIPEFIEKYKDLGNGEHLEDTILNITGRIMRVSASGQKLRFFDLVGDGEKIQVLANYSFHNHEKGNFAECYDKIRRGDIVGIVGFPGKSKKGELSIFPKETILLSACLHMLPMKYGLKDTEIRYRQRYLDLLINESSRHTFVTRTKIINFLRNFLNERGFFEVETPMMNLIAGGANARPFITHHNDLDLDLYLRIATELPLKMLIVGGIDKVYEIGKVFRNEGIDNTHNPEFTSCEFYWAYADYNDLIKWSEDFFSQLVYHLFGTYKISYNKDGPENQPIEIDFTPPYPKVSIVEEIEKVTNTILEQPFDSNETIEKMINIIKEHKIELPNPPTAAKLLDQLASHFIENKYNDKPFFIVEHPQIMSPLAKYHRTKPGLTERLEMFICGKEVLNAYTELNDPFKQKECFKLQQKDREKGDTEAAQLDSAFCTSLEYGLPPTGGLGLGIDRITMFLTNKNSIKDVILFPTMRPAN
UniProt P9WNZ1, whole entry: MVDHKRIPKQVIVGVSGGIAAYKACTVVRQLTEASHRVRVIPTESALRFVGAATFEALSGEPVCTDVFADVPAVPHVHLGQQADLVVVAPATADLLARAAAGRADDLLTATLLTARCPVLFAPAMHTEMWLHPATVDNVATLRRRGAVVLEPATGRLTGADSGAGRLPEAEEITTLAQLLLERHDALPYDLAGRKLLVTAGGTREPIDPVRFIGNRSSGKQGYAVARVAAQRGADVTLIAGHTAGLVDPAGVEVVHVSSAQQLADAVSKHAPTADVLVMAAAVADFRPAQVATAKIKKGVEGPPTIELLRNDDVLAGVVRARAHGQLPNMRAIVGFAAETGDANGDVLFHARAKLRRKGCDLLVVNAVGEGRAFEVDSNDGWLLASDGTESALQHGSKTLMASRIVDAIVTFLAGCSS
UniProt I6X8D2, whole entry: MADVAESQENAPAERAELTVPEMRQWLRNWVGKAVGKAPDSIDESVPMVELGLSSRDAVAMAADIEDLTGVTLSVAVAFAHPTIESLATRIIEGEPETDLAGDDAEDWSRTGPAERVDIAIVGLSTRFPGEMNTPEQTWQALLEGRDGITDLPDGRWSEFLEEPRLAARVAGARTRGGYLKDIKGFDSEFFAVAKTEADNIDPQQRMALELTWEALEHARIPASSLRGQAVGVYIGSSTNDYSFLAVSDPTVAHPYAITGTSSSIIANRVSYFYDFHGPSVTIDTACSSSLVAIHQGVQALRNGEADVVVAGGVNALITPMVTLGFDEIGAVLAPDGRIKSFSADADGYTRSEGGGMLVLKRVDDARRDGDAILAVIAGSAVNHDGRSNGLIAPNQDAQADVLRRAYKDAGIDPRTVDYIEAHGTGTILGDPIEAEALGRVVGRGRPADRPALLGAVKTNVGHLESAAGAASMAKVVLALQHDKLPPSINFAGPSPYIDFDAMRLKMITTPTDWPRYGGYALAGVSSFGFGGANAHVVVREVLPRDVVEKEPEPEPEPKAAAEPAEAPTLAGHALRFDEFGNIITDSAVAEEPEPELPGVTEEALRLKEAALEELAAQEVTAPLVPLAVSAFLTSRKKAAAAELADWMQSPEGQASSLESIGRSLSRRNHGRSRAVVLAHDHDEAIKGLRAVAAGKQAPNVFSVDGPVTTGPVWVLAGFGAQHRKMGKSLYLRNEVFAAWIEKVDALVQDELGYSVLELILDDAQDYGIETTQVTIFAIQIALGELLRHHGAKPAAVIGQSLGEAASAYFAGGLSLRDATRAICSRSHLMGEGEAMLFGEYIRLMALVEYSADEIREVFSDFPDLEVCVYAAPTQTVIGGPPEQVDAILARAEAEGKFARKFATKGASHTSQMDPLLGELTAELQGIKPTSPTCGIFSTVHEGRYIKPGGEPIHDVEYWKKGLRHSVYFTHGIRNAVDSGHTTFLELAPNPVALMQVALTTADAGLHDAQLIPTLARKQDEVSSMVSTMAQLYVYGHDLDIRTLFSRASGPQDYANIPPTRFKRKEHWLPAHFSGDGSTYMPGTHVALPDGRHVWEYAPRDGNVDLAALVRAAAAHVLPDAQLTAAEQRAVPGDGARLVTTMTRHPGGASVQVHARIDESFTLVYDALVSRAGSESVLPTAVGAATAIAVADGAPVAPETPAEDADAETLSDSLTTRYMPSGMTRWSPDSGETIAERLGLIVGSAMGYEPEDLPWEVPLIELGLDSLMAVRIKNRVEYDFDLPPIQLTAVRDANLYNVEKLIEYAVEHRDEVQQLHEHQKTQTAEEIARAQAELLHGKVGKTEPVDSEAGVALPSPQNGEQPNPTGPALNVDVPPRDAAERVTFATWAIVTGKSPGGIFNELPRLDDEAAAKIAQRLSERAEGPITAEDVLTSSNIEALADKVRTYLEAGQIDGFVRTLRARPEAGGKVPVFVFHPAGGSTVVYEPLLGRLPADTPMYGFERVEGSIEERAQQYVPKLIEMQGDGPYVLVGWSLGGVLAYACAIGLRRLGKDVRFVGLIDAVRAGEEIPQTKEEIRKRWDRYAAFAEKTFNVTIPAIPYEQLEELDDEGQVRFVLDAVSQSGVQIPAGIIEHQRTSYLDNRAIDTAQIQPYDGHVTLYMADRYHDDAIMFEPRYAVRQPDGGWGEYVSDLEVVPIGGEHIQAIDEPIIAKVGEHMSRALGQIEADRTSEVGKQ

MtTrpRS: 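Tryptophan-tRNA ligase, Mycobacterium tuberculosis (UniProt P9WFT3). Enzyme assay of tryptophanyl-tRNA synthetase; the read-out is not stated. Concentration: 10 µM. Direction is not recorded; retested compounds ran higher, which suggests that high means inhibition. Size under these conditions: about 65,000 compounds, about 64 of them at 50% or above in at least one test.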
TcHisRS: 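Histidine-tRNA ligase, Trypanosoma cruzi CL Brener (UniProt Q4DA54). Enzyme assay of histidyl-tRNA synthetase; the read-out is not stated. Concentration: 30 µM. Direction is inferred from retests: higher values go with stronger inhibition. Of about 69,000 compounds tested this way, about 31 (0.045%) reached 50% or more in at least one test.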
PfKRS1: 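Enzyme assay of the cytosolic lysyl-tRNA synthetase in 384-well plates, read by luminescence. Target: Lysine-tRNA ligase, Plasmodium falciparum 3D7 (UniProt Q8IDJ8). Compounds at 30 µM. Higher reads as stronger inhibition, judged from the few compounds that gave an IC50. Of about 69,000 compounds tested this way, about 49 (0.071%) reached 50% or more in at least one test.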
CoaBC: 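Enzyme assay of CoaBC with a phosphate dye (Biomol Green) read at 650 nm. Target: Coenzyme A biosynthesis protein CoaBC, Mycobacterium tuberculosis (UniProt P9WNZ1). Concentration: 30 µM. Direction is inferred from only a few compounds that gave an IC50; most scored high, so higher reads as stronger inhibition. Most strong results did not repeat in a second test. Size under these conditions: about 67,000 compounds, about 40 of them at 50% or above in at least one test.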
Pks13 thioesterase: 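Enzyme assay of the thioesterase domain of polyketide synthase 13; the read-out is not stated. Target: Polyketide synthase Pks13, Mycobacterium tuberculosis (UniProt I6X8D2). Compounds at 30 µM. The record gives no direction; the compounds picked for IC50 retests had high values, so higher reads as stronger inhibition. Of about 67,000 compounds tested this way, about 300 (0.46%) reached 50% or more in at least one test.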
Leishmania in macrophages: 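Cell assay of Leishmania donovani living inside macrophages; the read-out is not stated. Tested at 30 µM. Direction is inferred from retests: higher values go with stronger inhibition. Size under these conditions: about 69,000 compounds, about 1,000 of them at 50% or above in at least one test.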

Results are given as percent effect.
The controls that fix the scale are not given in the record; negative values are as filed.
Compounds were drawn at random from those tested, without regard to their results.
Two or more numbers in one place are separate tests of the same structure; such repeats can differ widely.
A dash means the value is not listed here; it may have been measured.

| # | Compound | MtTrpRS | TcHisRS | PfKRS1 | CoaBC | Pks13 thioesterase | Leishmania in macrophages |
|---|---|---|---|---|---|---|---|
| 1 | `CC(C)N1CCCC(N2CCOC3(CCCC3)C2)C1=O` (configuration not stated) | -3.916 | 1.053 | 3.877 | 7.968 | -23.89 | 4.361 |
| 2 | `Cc1[nH]ncc1C(=O)N1CCOC(c2cccs2)C1` (configuration not stated) | -1.091 | 4.516 | -5.132 | -1.208 | -14.49 | -6.22 |
| 3 | `CN1CC(=O)N(c2ccsc2)CC12CCN(S(C)(=O)=O)C2.O=C(O)C(F)(F)F` (configuration not stated) | - | - | - | - | - | 2.434 |
| 4 | `[H][C@]12CC[C@]([H])(CN(Cc3ccc(Cn4cccn4)cc3)C1)N(CCC)C2` | - | - | - | - | - | 8.996 |
| 5 | `Cc1cccc2c1C(=O)NC1(CCOCC1)N2` | 0.7703 | 1.754 | -0.2425 | 0.2525 | -0.1729 | 4.875 |
| 6 | `O=C1N[C@@H]2CCN(C(=O)N3CCOCC3)[C@@H]2C(=O)N1Cc1ccccc1` | -0.9789 | 16.83 | 2.679 | -3.837 | -28.44 | - |
| 7 | `Cc1ccc2c(n1)N(CC1CC1)CCN(Cc1ccco1)C2.O=C(O)C(F)(F)F.O=C(O)C(F)(F)F` | - | - | - | - | - | 7.802 & 5.078 |
| 8 | `O=C(Nc1nc2c(s1)CN(S(=O)(=O)C1CC1)CC2)c1ccc(=O)[nH]c1` | 1.634 | 7.229 | 4.501 | 4.071 | -8.545 | -22.43 & 7.809 |
| 9 | `Cc1ncc(CNC(=O)NCC(C)Oc2ccccc2F)s1` (configuration not stated) | 4.898 | 2.679 | 4.92 | 0.6289 | -5.756 | -8.079 |
| 10 | `COCC1c2nnn(C)c2CCN1C(=O)COc1ccccc1C` (configuration not stated) | - | 5.525 | 3.873 | -2.723 | -11.01 | 48.18 |
| 11 | `O=C1NC2(CCN(CC3CC3)CC2)CC1c1ccccc1` (configuration not stated) | -4.299 | 2.151 | 0.32 | -19.66 | -35.63 | - |
| 12 | `c1cc(CN2CCc3c(nnn3CC3CC3)C2COCC2CC2)co1` (configuration not stated) | 2.267 | 5.785 | 0.1749 | 4.622 | -9.692 | - |
| 13 | `O=C(c1ccncc1)N1CCN2C[C@H](Oc3cccc(F)c3)C[C@H]2C1` | -9.572 | 11.44 | 4.343 | -1.613 | 0.7658 | - |
| 14 | `COCCN1C[C@@H]2CN(S(=O)(=O)c3cccs3)C[C@@H]2C1=O` | -0.8892 | 2.913 | 2.065 | 5.598 | -22.21 | - |
| 15 | `O=C(C1CCC1)N1CCC2(CCN(Cc3cccc(F)c3)CC2)CC1` | -1.952 | 4.478 | -5.097 | -3.871 | 21.93 | - |
| 16 | `Cc1cnc(N)nc1NCCSCc1[nH]cnc1C` | 1.308 | 3.665 | 1.633 | -5.556 | 1.936 | 12.77 |
| 17 | `CCCc1noc(C(C)N(CC)Cc2ccco2)n1` (configuration not stated) | 4.513 | -1.064 | -1.778 | 6.352 | -14.61 | -14.13 |
| 18 | `CC(C)Cc1nc(CSCC(=O)N2CCC(C)CC2)no1` | -7.282 | 3.175 | -1.021 | 1.033 | -4.072 | 4.29 |
| 19 | `CC(=O)NC1CCN(c2ccc(C#N)cc2C(F)(F)F)CC1` | 0.4817 | 4.813 | -0.07913 | 13.48 | -29.61 | 19.62 |
| 20 | `Cc1cc(CNC(=O)C2CCCN2C(=O)OC(C)(C)C)no1` (configuration not stated) | 1.754 | 8.466 | -0.5826 | -9.27 | -20.75 | 19.87 |
| 21 | `Cc1ccsc1C(=O)N1CCC2(CC(C(=O)N(C)C(C)C)=NO2)C1` (configuration not stated) | -0.4122 | 4.02 | -15.71 | 10.18 | 0.333 | 3.617 |
| 22 | `Cc1nc(CN2CCOCC23CCN(c2ccc(C#N)cc2)CC3)cs1` | -2.697 | 5.063 | 3.732 | - | -27.24 | - |
| 23 | `CCc1nncn1CCNC(=O)Nc1ccc(OC)c(C)c1` | -3.269 | 0.8403 | 5.287 | 6.855 | -15.06 | 5.132 |
| 24 | `COCCN1CCN(Cc2ccc3nsnc3c2)[C@H]2CS(=O)(=O)C[C@H]21` | 4.374 | 7.143 | 10.62 | 11.51 | 5.396 | - |
| 25 | `CN1C(=O)CC(c2ccccc2)C12CCN(C(=O)c1ccc[nH]1)CC2` (configuration not stated) | -5.849 | 5.376 | -0.1067 | 3.171 | -27.52 | -67.63 & -2.647 |
| 26 | `O=C(O)c1cc2c(nc1-c1ccoc1)CCN(Cc1ccco1)CC2` | -6.502 | 3.941 | 1.881 | 2.284 | -3.228 | - |
| 27 | `CN(Cc1ccccn1)C1CC2(CCN(Cc3cccnc3)CC2)C1` | -0.5286 | 7.104 | 1.728 | 5.959 | -7.445 | - |
| 28 | `O=C(NCCc1cccs1)[C@H]1CO[C@H]2CCN(C3CCC3)C[C@H]2C1` | - | 7.407 | 2.506 | 6.173 | -12.52 | - |
| 29 | `CN(C)S(=O)(=O)N1CCC2(CC1)CC(Oc1ccccn1)CO2` (configuration not stated) | 13.05 | 7.65 | -0.6091 | 3.268 | 13.63 | - |
| 30 | `CN(C)c1ncc(-c2cncn2CCc2ccc3c(c2)OCCO3)cn1.Cl` | - | - | - | - | - | 20.21 |
| 31 | `CC(=O)NCc1ccc(C(=O)N2CCCc3c(F)ccc(C)c32)o1` | -1.067 | 3.571 | 5.471 | -1.843 | 7.188 | 15.18 |
| 32 | `c1cc(CNCc2ccnc(N3CCOCC3)c2)c2c(c1)OCCO2` | 0 | 0.8475 | 3.457 | 10.13 | -15.69 | 33.45 |
| 33 | `CC(Cn1ccnc1)NS(=O)(=O)c1ccc(F)c(Cl)c1` (configuration not stated) | 1.971 | 10.34 | 6.313 | -2.161 | - | 7.992 |
| 34 | `CC(C)(C)N1CCN(C(=O)Nc2cc(C(F)(F)F)c[nH]c2=O)CC1` | 7.977 | 2.286 | -1.646 | -0.2389 | -12.86 | 8.854 |
| 35 | `O=C(CCc1ccco1)N1CCCC(n2cccn2)C1` (configuration not stated) | -3.578 | 9.467 | -1.123 | 8.238 | -8.081 | 6.978 |
| 36 | `c1coc(CN2CCCn3c(CN4CCOCC4)nnc3C2)c1` | - | 10 | 3.752 | -0.2439 | -0.9367 | - |
| 37 | `Cc1ccc(N2CC3(CCN(C(=O)c4ccoc4)C3)C2)nn1` | -0.7457 | -0.8368 | -2.977 | 9.091 | -21.68 | 20.32 |
| 38 | `CCS(=O)(=O)N1CCC2(CN(c3cc(OC)ncn3)C2)C1` | 20 | 0 | -2.771 | -3.579 | 11.9 | -4.799 & 10.59 |
| 39 | `CNC(=O)c1ccc(C2CN(Cc3ccc(F)cc3)CCO2)nc1` (configuration not stated) | -1.737 | 4.651 | 2.661 | 10.18 | 12.59 | -27.1 |
| 40 | `CC(=O)N1C[C@@H](c2ccsc2)[C@@H]2CN(Cc3cccc(Cl)c3)CC[C@@H]21` | 3.25 | 6.452 | 2.969 | -1.702 | -14.98 | - |
| 41 | `O=C(c1ccc2c(c1)OCO2)N1C[C@@H](CN2CCCCC2)[C@@H](CO)C1` | 6.871 | -2.235 | 2.692 | -1.285 | -32.94 | 31.69 |
| 42 | `CN(C)S(=O)(=O)CCNc1ncc2c(n1)CCN2c1ccccc1` | -5.189 | 2.326 | 3.215 | -3.004 | -26.61 | -136.3 |
| 43 | `CCC(=O)c1ccc(OCC(=O)NC(C)c2nnn[nH]2)cc1` (configuration not stated) | 7.535 | 11.6 | 1.465 | 1.373 | -24.63 | 27.82 |
| 44 | `CC(C)NC(=O)N1CCN(CC2CC2)CC2(CC(=O)N(C)C2)C1.O=C(O)C(F)(F)F` (configuration not stated) | - | - | - | - | - | -3.985 |
| 45 | `O=C(CCc1nccs1)N1CCCC(n2cccn2)C1` (configuration not stated) | -3.078 | 2.907 | -0.03405 | 18.2 | -15.41 | 17.15 |
| 46 | `CCCS(=O)(=O)N1CCC(n2nc(-c3cc(C)oc3C)ccc2=O)CC1` | -0.2038 | 5.385 | 1.787 | 3.563 | -6.657 | -15.83 |
| 47 | `CCOc1ccc(CNC(=O)N2CCCC(CO)C2)cc1F` (configuration not stated) | -6.075 | 0 | 2.624 | 7.143 | -8.775 | 16.73 |
| 48 | `O=C(c1ncccn1)N1C[C@H]2CCC[C@@]2(COCc2cccnc2)C1` | 12.37 | 4.918 | -4.061 | 1.158 | -16.52 | - |
| 49 | `COCC1c2nnn(C)c2CCN1C(=O)c1ccc(OC)c(F)c1` (configuration not stated) | - | 2.21 | 2.695 | 1.733 | 0.9949 | 24.04 |
| 50 | `CC(NCCn1cccn1)c1ccccc1Cl` (configuration not stated) | -2.873 | 6.186 | 1.676 | -3.736 | -2.386 | 21.61 |
| 51 | `Cc1ccc(C(O)CNC(=O)Nc2cc(C)nn2C)cc1` (configuration not stated) | -1.664 | 5.294 | -0.4937 | 5.115 | -11.96 | 6.498 |
| 52 | `O=C(NCc1nn(-c2ccccc2)c2c1CCC2)NC1CCC(O)CC1` (configuration not stated) | 1.768 | 6.471 | 1.067 | 3.325 | -23.53 | 9.824 |
| 53 | `CN(C)C(=O)c1cc(-c2ccccc2)[nH]n1` | - | 4.545 | 2.756 | -1.699 | 17.45 | 14.43 |
| 54 | `COCC1c2c(cnn2C)CCN1C(=O)c1cccn1C.O=C(O)C(F)(F)F` (configuration not stated) | - | - | - | - | - | 51.46 |
| 55 | `c1cncc(CN2CCC(NCCc3ccc4c(c3)CCO4)CC2)c1` | 6.505 | 4.902 | -8.985 | -14.99 | 7.606 | 18.66 |

Once more, the final 5:

Compound,MtTrpRS,TcHisRS,PfKRS1,CoaBC,Pks13 thioesterase,Leishmania in macrophages
Cc1ccc(C(O)CNC(=O)Nc2cc(C)nn2C)cc1 (configuration not stated),-1.664,5.294,-0.4937,5.115,-11.96,6.498
O=C(NCc1nn(-c2ccccc2)c2c1CCC2)NC1CCC(O)CC1 (configuration not stated),1.768,6.471,1.067,3.325,-23.53,9.824
CN(C)C(=O)c1cc(-c2ccccc2)[nH]n1,-,4.545,2.756,-1.699,17.45,14.43
COCC1c2c(cnn2C)CCN1C(=O)c1cccn1C.O=C(O)C(F)(F)F (configuration not stated),-,-,-,-,-,51.46
c1cncc(CN2CCC(NCCc3ccc4c(c3)CCO4)CC2)c1,6.505,4.902,-8.985,-14.99,7.606,18.66